# In all, about 52,000 sequences went through this assay and about 210 (0.4%) were called active.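 The calls were made as follows: active = gene whose silencing raises cell survival under the drug, median off-target-corrected z-score across its silencing RNAs 2 or more; inactive = the rest.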 The list shows a part of the results.
# Assay: Resistance to Poly (ADP-Ribose) Polymerase inhibitor: Gene Identification via Genome-wide siRNA Screen
# Details: mouse BRCA2 R2336H ES cells, olaparib, CellTiter-Glo viability; active compounds read high
# Outline: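 Genome-wide siRNA screen (3 siRNAs/gene, 20 nM) in mouse ES cells carrying hypomorphic BRCA2 R2336H; olaparib 500 nM added 48 h post-transfection, CellTiter-Glo viability 72 h later. Normalized to plate-median negative control; MAD z-scores, gene median, seed-adjusted.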
row,Sequence,z-score
1,CCUCAUGUAGCAUUUUUCUTT against Pex11b,inactive: 0.363
2,GGCUCUCAAUUUUAUUUCUTT against D15Ertd785e,inactive: -0.0911
3,GCAAUAGGCAAUCUGGGAUTT against Olfr52,inactive: 1.51
4,GGGAGCAUUUCCUUAUACUTT against Tpmt,inactive: 0.437
5,CCCGCUUUCAGUCUUAACATT against 6330578E17Rik,inactive: 0.399
6,GGCCAACUUGCUGGUAUUGTT against AF322649,inactive: -0.0809
7,GGAGCAGGUUGGCUAUUUGTT against Ppp6c,inactive: -0.738
8,GGUCUCAAUAAACUUCAGGTT against Mfap4,inactive: 2
9,GCAUCGUUGACUAAAGUGGTT against Grm3,inactive: -0.445
10,CCUACAAGAACGAAGAUUUTT against 2610311B01Rik,inactive: 0.886
11,GGAAAUGAAUGGAAAUAGUTT against D030070L09Rik,inactive: 0.736
12,CGCCACUAUCCUAACUUGCTT against Olfr963,inactive: 1.26
13,CCAUAAUCUCUUUUCACUGTT against Fzd7,inactive: 1.02
14,GGAUGAAAAGGGACAAAGATT against BC021790,inactive: -1.68
15,GCCUGUAGCAGAGAACUUUTT against 5330410G16Rik,inactive: 0.312
16,GCAAUGACAUCUUUUAGACTT against Gpr12,inactive: -0.704
17,GGCUAGCCUUGAAUUUAUGTT against Trp53rk,inactive: -0.591
18,CCUUGCUCUUUCCAGCUCUTT against Olfr704,inactive: 1.36
19,CAGAUGCAAGAAGAGAGAGTT against E130006D01Rik,inactive: -0.73
20,CCGGACUCUAGAGGACUUUTT against Lalba,inactive: 0.333
21,GGCACAUGCCCUUUUCUACTT against Cog1,inactive: 0.266
22,GCUGUGCCCUAAAGACUGGTT against 4922502D21Rik,inactive: 0.642
23,GGAGAGCAAAUUAAGUUCATT against Rab6ip2,inactive: 0.12
24,GGUGUUUACACAGAGAAUGTT against Gpr143,inactive: -0.0228
25,GGAUGAGUACAGCAUUCUGTT against Rhebl1,inactive: -0.185
26,GGAUCGAAUCUUUACCUAUTT against Col9a1,inactive: 1.52

row,Sequence,z-score
1,GGCAGUAAAUAGUAAGAAATT against Ccr9,inactive: -0.437
2,GGAGUUGGACCUGUCAGAGTT against Daxx,inactive: 0.456
3,GGAAAACUGCUUUGAGCUGTT against Thap7,inactive: 0.641
4,GGAACCAGAGAAAGAAGAUTT against Nfkbie,inactive: -0.601
5,GGGUUAGCAACUUCAAAUATT against Zmynd19,inactive: -0.526
6,GGAAGUCUACAAGUGGCCATT against Nr1d1,inactive: 1.13
7,GGAGCAUUAUAUCAAUCCUTT against Zfp111,inactive: 3.08
8,CGGCUACCAAUCCAAGACATT against F830029L24Rik,inactive: 1.86
9,GGAAGAGAAAUUCUUCCUCTT against Alg5,inactive: 0.602
10,GGAAAGCCGUAUAGUUGUATT against LOC244556,inactive: 0.176
11,GCGCAAAUCUCUCUGUUCUTT against Krt1-24,inactive: -2.13
12,GGUUUCUUCCACAGGACCUTT against 1210002B07Rik,inactive: -1.08
13,GGAAGCAUUUCUUAAUUCATT against Ncoa4,inactive: 0.162
14,GGAGUACGUUGACAUCAUCTT against Timp4,inactive: -1.01
15,GGAGCAUUCUUUGGUGAAGTT against 1700024B05Rik,inactive: -1.42
16,GCGUGAACCGUUUGAUGAGTT against 9030612E09Rik,inactive: 0.991
17,CGGAUUCCGCUGGAACUAUTT against Enpp7,inactive: 1.25
18,GGAAAGGAGAGGUGUGUUCTT against Asb7,inactive: 1.44
19,CGCUUCUAUAAACCUGACUTT against Mrpl3,inactive: 0.168
20,GGCCCAGCAAAAAAAGAAGTT against Usp46,inactive: -0.453
21,GGCAAAAUUAAAGCACAGUTT against 2810055F11Rik,inactive: 0.334
22,GGUUCUUAACCUCAGCAGUTT against Omg,inactive: 0.118
23,GGUGAAGUACUUUUCGUUCTT against Slc1a3,inactive: -0.0695
24,GGUCCUGGAGGCUUAUAAUTT against Sema3a,inactive: -0.851
25,GCUACUCUCUAUUGGUUUUTT against Gpr45,inactive: -0.405
26,GCGGUGUCCUAAAAUGCACTT against Nkx1-2,inactive: 0.554

# Reprinted at random: 2 entries already listed, in no set order.
row,Sequence,z-score
16,GCGUGAACCGUUUGAUGAGTT against 9030612E09Rik,inactive: 0.991
9,GGAAGAGAAAUUCUUCCUCTT against Alg5,inactive: 0.602
